# Source: the supplement of paper PMC12823440, “Inhibitors supercharge kinase turnover through native proteolytic circuits” (Nature, 2025)
# The chains behind the UniProt entries cited, without tags or fusion partners. Where a name states a change or a piece, a line headed by the entry shows the natural chain unless it says otherwise.
# UniProt Q9UQM7, whole entry: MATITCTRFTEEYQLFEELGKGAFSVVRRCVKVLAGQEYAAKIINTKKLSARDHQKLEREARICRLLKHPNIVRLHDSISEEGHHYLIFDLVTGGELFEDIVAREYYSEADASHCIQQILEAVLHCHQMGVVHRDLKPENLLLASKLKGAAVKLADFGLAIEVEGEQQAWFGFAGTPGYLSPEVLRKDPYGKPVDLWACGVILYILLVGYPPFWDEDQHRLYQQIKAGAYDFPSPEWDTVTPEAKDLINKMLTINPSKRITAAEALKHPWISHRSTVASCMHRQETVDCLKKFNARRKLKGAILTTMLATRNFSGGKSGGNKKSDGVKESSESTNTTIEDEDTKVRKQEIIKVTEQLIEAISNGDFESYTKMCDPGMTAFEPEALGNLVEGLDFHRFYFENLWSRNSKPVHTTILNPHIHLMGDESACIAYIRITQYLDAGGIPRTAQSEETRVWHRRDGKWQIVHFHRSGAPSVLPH
# UniProt Q13555: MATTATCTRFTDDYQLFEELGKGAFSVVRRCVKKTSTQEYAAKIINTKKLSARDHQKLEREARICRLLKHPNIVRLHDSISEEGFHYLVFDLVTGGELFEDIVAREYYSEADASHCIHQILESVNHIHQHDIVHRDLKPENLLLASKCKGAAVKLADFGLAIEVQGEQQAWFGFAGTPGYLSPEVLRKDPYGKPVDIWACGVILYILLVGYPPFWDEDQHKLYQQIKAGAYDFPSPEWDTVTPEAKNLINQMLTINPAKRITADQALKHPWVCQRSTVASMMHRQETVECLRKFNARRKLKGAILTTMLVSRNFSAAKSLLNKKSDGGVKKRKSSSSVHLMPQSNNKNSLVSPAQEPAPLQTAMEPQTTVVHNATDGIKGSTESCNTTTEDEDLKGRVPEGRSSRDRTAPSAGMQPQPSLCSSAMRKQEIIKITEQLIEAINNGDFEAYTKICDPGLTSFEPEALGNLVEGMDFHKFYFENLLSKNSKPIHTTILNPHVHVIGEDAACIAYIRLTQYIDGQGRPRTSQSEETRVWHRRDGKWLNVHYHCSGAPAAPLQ
# UniProt Q15131: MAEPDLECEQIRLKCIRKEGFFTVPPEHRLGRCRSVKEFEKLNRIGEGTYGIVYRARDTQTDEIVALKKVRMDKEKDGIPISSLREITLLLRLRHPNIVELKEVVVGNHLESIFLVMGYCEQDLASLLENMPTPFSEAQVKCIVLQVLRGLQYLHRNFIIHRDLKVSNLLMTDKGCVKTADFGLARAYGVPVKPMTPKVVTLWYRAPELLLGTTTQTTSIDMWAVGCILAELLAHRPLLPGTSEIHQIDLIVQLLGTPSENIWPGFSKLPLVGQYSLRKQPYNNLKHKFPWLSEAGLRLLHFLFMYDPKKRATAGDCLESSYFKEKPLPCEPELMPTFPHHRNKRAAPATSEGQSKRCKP
# UniProt Q00526: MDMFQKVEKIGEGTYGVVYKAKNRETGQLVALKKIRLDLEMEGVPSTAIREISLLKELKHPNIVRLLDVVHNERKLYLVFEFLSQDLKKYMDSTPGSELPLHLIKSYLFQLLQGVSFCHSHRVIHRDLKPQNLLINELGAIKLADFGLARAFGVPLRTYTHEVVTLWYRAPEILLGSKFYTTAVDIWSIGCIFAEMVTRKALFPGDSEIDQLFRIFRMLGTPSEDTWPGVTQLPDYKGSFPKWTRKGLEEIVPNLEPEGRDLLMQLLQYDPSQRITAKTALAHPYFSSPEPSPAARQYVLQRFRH
# UniProt Q00535, whole entry, looked up: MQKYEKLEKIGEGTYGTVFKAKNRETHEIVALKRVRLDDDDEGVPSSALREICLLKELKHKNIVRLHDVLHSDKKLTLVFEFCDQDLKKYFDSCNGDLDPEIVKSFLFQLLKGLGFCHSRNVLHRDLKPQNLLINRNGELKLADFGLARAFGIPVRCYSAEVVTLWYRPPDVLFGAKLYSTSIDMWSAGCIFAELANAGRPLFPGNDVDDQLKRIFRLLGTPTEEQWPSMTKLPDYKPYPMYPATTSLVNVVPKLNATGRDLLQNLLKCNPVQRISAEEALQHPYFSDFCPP
# UniProt Q00534, whole entry: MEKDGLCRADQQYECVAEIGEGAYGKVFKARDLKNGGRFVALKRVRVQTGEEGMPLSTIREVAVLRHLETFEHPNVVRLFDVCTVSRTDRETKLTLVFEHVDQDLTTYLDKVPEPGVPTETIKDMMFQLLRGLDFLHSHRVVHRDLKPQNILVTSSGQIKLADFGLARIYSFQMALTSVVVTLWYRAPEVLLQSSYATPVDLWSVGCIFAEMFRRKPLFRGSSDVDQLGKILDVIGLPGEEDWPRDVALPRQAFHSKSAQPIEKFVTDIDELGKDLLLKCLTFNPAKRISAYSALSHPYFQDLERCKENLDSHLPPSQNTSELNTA
# UniProt O96017, whole entry: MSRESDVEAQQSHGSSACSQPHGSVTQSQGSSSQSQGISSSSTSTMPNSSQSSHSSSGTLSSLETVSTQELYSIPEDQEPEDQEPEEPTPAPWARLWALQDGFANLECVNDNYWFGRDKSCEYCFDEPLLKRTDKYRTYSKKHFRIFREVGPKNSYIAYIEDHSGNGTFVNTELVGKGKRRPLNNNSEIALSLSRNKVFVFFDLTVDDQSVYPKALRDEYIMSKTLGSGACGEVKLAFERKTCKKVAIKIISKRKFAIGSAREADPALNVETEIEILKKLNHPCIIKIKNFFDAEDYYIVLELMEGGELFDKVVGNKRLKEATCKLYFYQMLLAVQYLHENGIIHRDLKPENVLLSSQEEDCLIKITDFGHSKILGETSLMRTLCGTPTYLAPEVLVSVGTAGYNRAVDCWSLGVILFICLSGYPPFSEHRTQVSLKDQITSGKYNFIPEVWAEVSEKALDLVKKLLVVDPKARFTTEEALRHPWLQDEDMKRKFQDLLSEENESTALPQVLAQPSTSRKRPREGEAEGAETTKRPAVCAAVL
# UniProt P07333, whole entry: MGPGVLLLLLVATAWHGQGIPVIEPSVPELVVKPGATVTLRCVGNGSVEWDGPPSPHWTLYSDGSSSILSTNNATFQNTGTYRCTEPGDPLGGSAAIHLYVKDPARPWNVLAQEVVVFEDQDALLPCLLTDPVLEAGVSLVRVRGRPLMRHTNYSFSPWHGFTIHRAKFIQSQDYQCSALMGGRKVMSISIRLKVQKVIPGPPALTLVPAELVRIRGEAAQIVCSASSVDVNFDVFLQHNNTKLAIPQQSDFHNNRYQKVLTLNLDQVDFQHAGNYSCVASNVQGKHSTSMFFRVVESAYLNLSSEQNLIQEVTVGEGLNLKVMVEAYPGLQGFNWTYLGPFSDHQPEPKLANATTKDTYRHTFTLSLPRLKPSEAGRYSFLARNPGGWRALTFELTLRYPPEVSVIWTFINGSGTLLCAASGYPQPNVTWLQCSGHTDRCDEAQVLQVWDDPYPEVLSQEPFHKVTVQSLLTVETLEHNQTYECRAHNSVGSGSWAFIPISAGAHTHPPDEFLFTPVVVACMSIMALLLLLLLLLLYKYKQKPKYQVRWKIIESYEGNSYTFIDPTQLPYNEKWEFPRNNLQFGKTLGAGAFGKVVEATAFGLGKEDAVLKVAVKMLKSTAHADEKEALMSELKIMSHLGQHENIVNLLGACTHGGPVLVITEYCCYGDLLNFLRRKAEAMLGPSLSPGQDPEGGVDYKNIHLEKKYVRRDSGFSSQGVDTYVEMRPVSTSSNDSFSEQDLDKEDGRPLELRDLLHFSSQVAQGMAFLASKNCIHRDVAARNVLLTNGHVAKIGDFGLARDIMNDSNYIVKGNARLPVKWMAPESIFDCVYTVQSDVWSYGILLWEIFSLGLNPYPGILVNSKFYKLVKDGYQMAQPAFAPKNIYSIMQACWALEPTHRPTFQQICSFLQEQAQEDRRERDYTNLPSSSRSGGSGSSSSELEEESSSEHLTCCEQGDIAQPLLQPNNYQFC
# UniProt P41240: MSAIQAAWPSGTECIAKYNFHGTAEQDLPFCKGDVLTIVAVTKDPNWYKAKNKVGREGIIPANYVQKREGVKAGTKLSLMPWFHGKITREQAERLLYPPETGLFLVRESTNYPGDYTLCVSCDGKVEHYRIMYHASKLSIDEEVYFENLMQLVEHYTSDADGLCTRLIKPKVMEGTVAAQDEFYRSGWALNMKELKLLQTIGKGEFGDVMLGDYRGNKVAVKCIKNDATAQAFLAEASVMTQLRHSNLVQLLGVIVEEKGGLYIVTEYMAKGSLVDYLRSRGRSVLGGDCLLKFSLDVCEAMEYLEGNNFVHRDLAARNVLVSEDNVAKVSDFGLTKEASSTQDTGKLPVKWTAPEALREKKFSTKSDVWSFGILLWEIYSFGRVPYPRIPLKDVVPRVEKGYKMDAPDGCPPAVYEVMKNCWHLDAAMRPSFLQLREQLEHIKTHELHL
# Where a name gives a salt, the structure may show the parent alone. The list shows a part of the results. The calls rarely recur for the same compound in another form.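 Kinases were expressed as nanoluciferase fusions in K562 cells and luminescence was read every 4 h between 2 and 18 h as percent of control, DMSO set to 100% and a positive control to 0%. A time point counts as decreased when the signal drops significantly (2 sigma). The hit call is the authors' own, does not follow from the count of time points alone, and its rule is not shown.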
# Assays:
# Assay in all cases: number of time points (of 5) at which kinase-Nluc abundance scored as decreased, DMSO-normalised (count); higher = more persistent destabilization
# Conditions in all cases: K562; 2-18 h
# [1] = molecular target: CAMK2A (UniProt Q9UQM7)
# [2] = molecular target: CAMK2G (UniProt Q13555)
# [3] = molecular target: CDK10 (UniProt Q15131)
# [4] = molecular target: CDK2 (UniProt P24941)
# [5] = molecular target: CDK3 (UniProt Q00526)
# [6] = molecular target: CDK5 (UniProt Q00535)
# [7] = molecular target: CDK6 (UniProt Q00534)
# [8] = molecular target: CHEK2 (UniProt O96017)
# [9] = molecular target: CSF1R (UniProt P07333)
# [10] = molecular target: CSK (UniProt P41240)
SMILES,number of time points [1],number of time points [2],number of time points [3],number of time points [4],number of time points [5],number of time points [6],number of time points [7],number of time points [8],number of time points [9],number of time points [10]
Nc1[nH]nc2nc(-c3ccc(NS(=O)(=O)c4cc(Cl)ccc4Cl)cc3)cnc12 (10 µM),0,0,0,0,0,0,0,0,0,0
COc1cc2ncnc(Oc3ccc(CC(=O)Nc4cnn(C(C)C)c4)cc3)c2cc1OC (10 µM),0,0,0,0,0,0,0,0,2,0
Cc1cc(CSc2ccccc2C(=O)NCCNc2ccc(C(F)(F)F)cc2[N+](=O)[O-])on1 (10 µM),0,0,0,0,0,0,0,0,0,0
Nc1ncnc2c1nc(Br)n2[C@@H]1O[C@@H]2COP(=O)(O)O[C@H]2[C@H]1O [8-Bromo-cAMP sodium salt] (10 µM),0,0,0,0,0,0,0,0,0,0
C#Cc1cccc(Nc2ncnc3cc(OC)c(NC(=O)N4C[C@H]5CCN(C)[C@H]5C4)cc23)c1 [Theliatinib] (10 µM),0,0,0,0,0,0,0,0,0,0
C=CC(=O)Nc1ccc(C(=O)Nc2[nH]nc3c2CN(C(=O)N[C@H](CN(C)C)c2ccccc2)C3(C)C)cc1 (10 µM),3,0,0,1,0,0,1,0,1,0
COc1cc2ncnc(Nc3ccc(O)c(Br)c3)c2cc1OC (10 µM),0,0,0,0,0,0,0,0,0,0
N#Cc1ccc2ncnc(NCCc3ccccc3)c2c1 [Senexin A] (10 µM),0,0,0,0,0,0,0,0,0,0
COc1cc2c(cc1OC)/C(=C/c1ccc(O)cc1)C(=O)N2 (10 µM),0,0,0,0,0,0,0,0,0,0
O=C(Nc1ccc(Cl)cc1)C1CCCN(C(=O)c2cc(C(F)(F)F)cc(C(F)(F)F)c2)C1 (stereo not given) (10 µM),0,1,0,0,0,0,1,1,0,0
COCCOCCc1c(C)c2cc(OC)c(O)c(C=O)c2oc1=O (10 µM),0,0,0,0,0,0,0,0,0,0
Cn1c(CNc2cccc(C(=O)NCc3ccccc3C(F)(F)F)c2)nnc1-c1ccncc1 (10 µM),0,0,0,0,0,0,0,0,0,0
CCn1c(-c2nonc2N)nc2c(C#CC(C)(C)O)ncc(OC[C@H]3CCCNC3)c21 (10 µM),0,0,0,0,0,0,0,0,0,0
CC(C)n1c(=O)n(C)c2cnc3cc(F)c(-c4ccc(OCCCN5CCCCC5)nc4)cc3c21 (10 µM),0,0,0,0,0,0,0,0,0,0
CC(C)n1ncnc1-c1cn2c(n1)-c1ccc(O[C@@H](C)C(N)=O)cc1OCC2 (10 µM),0,0,0,0,0,0,0,0,0,0
C=C1C(=O)[C@@]23[C@H](O)C[C@@H]4C(C)(C)C(=O)CC[C@@]4(C)[C@@H]2CC[C@@H]1[C@H]3O [Glaucocalyxin A] (2.5 µM),0,0,0,0,0,0,0,0,0,0
CNC(=O)c1ccc2c(C(=Nc3cccc(CN(C)C)c3)c3ccccc3)c(O)[nH]c2c1 [MEK inhibitor] (10 µM),0,0,0,0,0,0,0,0,0,0
COC(=O)/C=C/c1ccccc1 [Methyl cinnamate] (10 µM),0,0,0,0,0,0,0,0,0,0
COc1c(O)cc2oc(-c3ccc(O)cc3)cc(=O)c2c1O [Hispidulin] (10 µM),0,0,0,0,0,0,0,0,0,0
O=C(O)c1ccc(/C=C/S(=O)(=O)Cc2ccc(Cl)cc2)cc1 [Recilisib] (10 µM),0,0,0,0,0,0,0,0,0,0
N#C/C(=C\c1ccc(O)c(O)c1)C(=O)O [Tyrphostin AG30] (10 µM),0,0,0,0,0,0,0,0,0,0
N#Cc1cnc2c(Cl)cc(NCc3cn(CCN4CCCCCC4)nn3)cc2c1Nc1ccc(F)c(Cl)c1 [Cot inhibitor-1] (10 µM),0,0,0,0,4,0,0,0,0,0
CN1CCN(c2ccc(Nc3ncc4cc(C#N)c(=O)n(C5CCCC5)c4n3)cc2)CC1 (10 µM),0,0,0,0,0,0,0,0,0,0
CN1CCN(c2cc(-c3ccncc3)c(-c3ccc4ccccc4c3)nn2)CC1 (10 µM),0,0,0,0,0,0,0,0,0,0

# Sorted by formula weight (rising): three of the compounds above.
SMILES,number of time points [1],number of time points [2],number of time points [3],number of time points [4],number of time points [5],number of time points [6],number of time points [7],number of time points [8],number of time points [9],number of time points [10]
COC(=O)/C=C/c1ccccc1 [Methyl cinnamate] (10 µM),0,0,0,0,0,0,0,0,0,0
CC(C)n1c(=O)n(C)c2cnc3cc(F)c(-c4ccc(OCCCN5CCCCC5)nc4)cc3c21 (10 µM),0,0,0,0,0,0,0,0,0,0
N#Cc1cnc2c(Cl)cc(NCc3cn(CCN4CCCCCC4)nn3)cc2c1Nc1ccc(F)c(Cl)c1 [Cot inhibitor-1] (10 µM),0,0,0,0,4,0,0,0,0,0

# Carrying on:

SMILES,number of time points [1],number of time points [2],number of time points [3],number of time points [4],number of time points [5],number of time points [6],number of time points [7],number of time points [8],number of time points [9],number of time points [10]
Cc1cc(C(=O)NC(C)(C)C)cc(C#Cc2ccc3c4c(oc3c2)C(C)(C)c2cc(NS(C)(=O)=O)ccc2C4=O)n1 (10 µM),0,0,0,0,0,0,0,0,0,0
CCCCCc1ccc(/C=C/[C@H](O)[C@@H](CO)NC)cc1 [SK1-I (hydrochloride)] (10 µM),0,0,0,0,0,0,0,0,0,0
COCCOc1ccc2c(c1)ncn2-c1ccc2cccc(N3CCC(N)CC3)c2n1 (10 µM),0,1,3,0,0,0,0,2,1,0
Cc1cc(C(=O)Nc2nc3cccc(Cl)c3n2[C@@H]2CCCCN(C(=O)/C=C/CN(C)C)C2)ccn1 [Nazartinib] (10 µM),0,0,0,0,0,0,0,0,0,0
C=CC(=O)Nc1cc(Nc2nccc(-c3cn(C)c4ccccc34)n2)c(OC)cc1N(C)CCNC [AZ7550 Mesylate] (2.5 µM),0,0,0,0,0,0,0,0,0,0
Fc1ccc2[nH]ccc2c1-c1nc(N2CCOCC2)c2sc(CN3CCN(CC4CC4)CC3)cc2n1 (10 µM),0,0,0,0,0,0,0,0,0,0
Nc1ncc(C(=O)NC2CN(C(=O)C3CC3)C2)c2ccc(-c3cccc(F)c3)nc12 (2 µM),0,0,0,0,0,0,0,0,0,0
COc1cc2c(cc1Nc1ncc(C(N)=O)c(Nc3c(F)cccc3C(F)(F)F)n1)CN(C)CC2 (2.5 µM),0,0,0,0,0,0,0,0,0,0
COc1ccc2c(Oc3ccc4c(C(=O)Nc5ccccc5N)cccc4c3)ccnc2c1 [Chiauranib] (10 µM),0,0,4,0,0,0,0,0,5,0
O=C1NC(=O)/C(=C\c2c[nH]c(=O)c(-c3ccc(N4CCNCC4)nc3)c2)S1 [Protein kinase inhibitors 1 hydrochloride] (10 µM),0,0,0,0,0,0,0,0,0,0
C[C@@H]1O[C@@H](Oc2cc(O)c3c(=O)c(O[C@@H]4O[C@@H](C)[C@H](O)[C@@H](O)[C@H]4O)c(-c4ccc(O)cc4)oc3c2)[C@H](O)[C@H](O)[C@H]1O [Kaempferitrin] (10 µM),0,0,0,0,0,0,0,0,0,0
CC(C)CCN1c2nc(Nc3cc(F)c(O)c(F)c3)ncc2N(C)C(=O)C1C (stereo not given) (2.5 µM),0,0,0,0,0,0,0,0,0,0
COc1cc(-c2cc(OP(=O)(O)O)cc(-c3cc(OC)c(OC)c(OC)c3)c2)cc(OC)c1OC [Stafia-1] (10 µM),0,0,0,0,0,0,0,0,0,0
NC1(C(=O)NCCCn2cc(-c3ccc(OC(F)(F)F)cc3)c3cc(CN4CCN(Cc5c(Cl)cccc5Cl)CC4)ccc32)CCNCC1 (2.5 µM),0,0,0,0,0,0,0,0,0,0
c1nn(C2CCOCC2)cc1Nc1ncc2nnn(-c3ccc4cn[nH]c4c3)c2n1 (10 µM),0,0,0,0,0,0,0,0,0,0
CC(C)Oc1ccc(F)c(-c2cnc(N)c(C(=O)Nc3cnccc3N3CCC[C@@H](C(=O)O)C3)n2)c1 (2 µM),0,0,0,0,0,0,0,0,0,0
Cc1ccc(C)c(OCCn2cc(C(=O)O)c3ccccc32)c1 (10 µM),0,0,0,0,0,0,0,0,0,0
O=C1Nc2ccc(I)cc2/C1=C/c1cc(Br)c(O)c(Br)c1 (10 µM),4,1,0,0,3,0,3,2,0,0
O=C1CC[C@H](NC(=O)Cc2ccccc2)C(=O)N1 [Antineoplaston A10] (10 µM),0,0,0,0,0,0,0,0,0,0
Nc1nc(NCCNc2ncc(-n3ccnc3)c(-c3ccc(Cl)cc3Cl)n2)ccc1[N+](=O)[O-] (2.5 µM),0,3,0,0,0,0,0,2,0,0
Cn1ncc(NC(=O)c2nc(-c3c(F)cccc3F)sc2N)c1N1CC[C@@H](N)[C@H](F)CC1 (10 µM),0,0,0,0,0,0,0,0,0,0
Cc1nn(C)cc1-c1nc2c(N3CCN(Cc4ccc(Cl)cc4)CC3)c(Cl)cnc2[nH]1 (10 µM),0,0,0,0,0,0,0,0,0,0
c1ccc(Cn2c(-c3ccc(OC[C@H](C4CCNCC4)n4c(-c5ccccc5)nc5ccccc54)cc3)nc3ccccc32)cc1 [Deltarasin] (2.5 µM),0,0,0,0,0,0,0,0,0,0
Cc1c(C(=O)Nc2ccc(Oc3ccnc4[nH]cc(-c5ccccc5)c34)c(F)c2)c(=O)n(-c2ccc(F)cc2)n1C (10 µM),0,0,0,0,0,0,0,0,0,0
